According to publication PMC6429053:
No constants are given. Whether binding was seen depends on the method and setting. Binding seen in cells or lysates may run through a third protein. Some entries that bind do so weakly or less than the wild type.

Sequences of proteins named here, by UniProt entry; tags and fusion partners are left off.
UniProt P04150: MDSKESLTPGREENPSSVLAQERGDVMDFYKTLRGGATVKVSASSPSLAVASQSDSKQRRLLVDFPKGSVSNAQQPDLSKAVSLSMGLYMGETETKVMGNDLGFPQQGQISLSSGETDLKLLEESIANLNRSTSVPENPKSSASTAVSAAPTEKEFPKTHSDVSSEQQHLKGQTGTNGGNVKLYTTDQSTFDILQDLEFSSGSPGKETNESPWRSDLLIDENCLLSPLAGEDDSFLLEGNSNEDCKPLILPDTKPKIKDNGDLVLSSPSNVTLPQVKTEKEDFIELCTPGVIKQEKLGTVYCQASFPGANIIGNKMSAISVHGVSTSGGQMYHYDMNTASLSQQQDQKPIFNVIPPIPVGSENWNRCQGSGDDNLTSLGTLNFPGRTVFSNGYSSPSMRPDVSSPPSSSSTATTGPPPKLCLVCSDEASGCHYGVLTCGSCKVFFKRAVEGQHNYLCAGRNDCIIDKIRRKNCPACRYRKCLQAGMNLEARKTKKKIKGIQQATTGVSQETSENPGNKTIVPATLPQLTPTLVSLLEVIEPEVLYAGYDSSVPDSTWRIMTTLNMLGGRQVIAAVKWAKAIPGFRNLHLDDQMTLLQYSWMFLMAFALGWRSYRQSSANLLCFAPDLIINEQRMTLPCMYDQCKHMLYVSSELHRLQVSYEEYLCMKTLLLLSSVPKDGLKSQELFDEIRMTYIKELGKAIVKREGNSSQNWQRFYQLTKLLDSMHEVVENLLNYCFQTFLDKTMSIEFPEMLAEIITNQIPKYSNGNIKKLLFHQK

Molecular target: T1, Heme oxygenase 1 (human (endogenous in PC3)) (UniProt P09601)
T1 sequence: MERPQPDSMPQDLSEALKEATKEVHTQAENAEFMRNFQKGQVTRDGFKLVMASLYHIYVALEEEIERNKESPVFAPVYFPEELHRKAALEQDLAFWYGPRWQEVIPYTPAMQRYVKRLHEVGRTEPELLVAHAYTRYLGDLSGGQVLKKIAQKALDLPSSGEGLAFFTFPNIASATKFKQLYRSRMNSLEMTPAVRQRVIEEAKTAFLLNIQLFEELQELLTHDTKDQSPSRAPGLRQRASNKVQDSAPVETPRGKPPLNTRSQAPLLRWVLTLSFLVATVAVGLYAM
Experiment: co-IP; PC3 cells treated with Hemin (80 uM, 24 h) or PBS; nuclear and cytoplasmic extracts; 500 ug protein incubated overnight at 4 C with 8 ug anti-HO-1 antibody (IgG as negative control), Protein G agarose beads 3 h at 4 C; immunoblot with anti-GR and anti-HO-1; lysis buffer 20 mM Tris HCl pH 8, 137 mM NaCl, 10% glycerol, 1% Triton X-100, EDTA

binding: binds
Substance: Glucocorticoid receptor (from UniProt P04150 1-777)
